Results are given in words; binding and its absence hold for the method and conditions named. Some results given as binding are weak or reduced against the parent protein; the word gives no strength.
How the values were obtained:
[1] = molecular target: T1, rat GPCR135 long form (rat); experiment: radioligand binding on transfected COS-7 cells, room temperature 1 h, gamma counting
T1 sequence: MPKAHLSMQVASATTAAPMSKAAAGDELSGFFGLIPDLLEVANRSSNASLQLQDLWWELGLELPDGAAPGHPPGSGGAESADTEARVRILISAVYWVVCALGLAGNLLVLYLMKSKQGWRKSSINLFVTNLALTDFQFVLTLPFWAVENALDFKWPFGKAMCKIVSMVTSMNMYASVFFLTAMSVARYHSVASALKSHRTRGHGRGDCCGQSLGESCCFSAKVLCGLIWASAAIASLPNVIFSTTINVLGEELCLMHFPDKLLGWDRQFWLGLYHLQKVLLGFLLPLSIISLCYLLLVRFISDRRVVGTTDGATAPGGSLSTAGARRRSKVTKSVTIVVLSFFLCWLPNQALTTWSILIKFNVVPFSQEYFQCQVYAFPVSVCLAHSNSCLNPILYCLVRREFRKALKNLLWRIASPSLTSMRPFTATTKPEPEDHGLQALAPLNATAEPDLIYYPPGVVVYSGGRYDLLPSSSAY

[2] = molecular target: T2, rat GPCR135 short form (rat); experiment: as above
T2 sequence: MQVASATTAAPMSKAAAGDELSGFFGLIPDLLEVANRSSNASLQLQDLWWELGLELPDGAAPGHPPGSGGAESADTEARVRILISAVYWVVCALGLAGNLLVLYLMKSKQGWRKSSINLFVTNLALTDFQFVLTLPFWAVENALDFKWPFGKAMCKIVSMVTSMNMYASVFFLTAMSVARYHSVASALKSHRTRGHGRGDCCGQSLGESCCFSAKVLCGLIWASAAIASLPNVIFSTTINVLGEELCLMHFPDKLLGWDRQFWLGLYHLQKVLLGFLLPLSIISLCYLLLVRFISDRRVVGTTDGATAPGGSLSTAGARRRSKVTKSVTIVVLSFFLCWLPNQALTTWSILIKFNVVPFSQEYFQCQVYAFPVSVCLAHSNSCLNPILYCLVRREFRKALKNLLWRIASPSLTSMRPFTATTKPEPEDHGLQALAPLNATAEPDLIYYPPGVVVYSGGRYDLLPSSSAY

mouse GPCR135 (mouse) [3] = molecular target: T3, mouse GPCR135 (mouse) (UniProt Q8BGE9); experiment: as above
T3 sequence: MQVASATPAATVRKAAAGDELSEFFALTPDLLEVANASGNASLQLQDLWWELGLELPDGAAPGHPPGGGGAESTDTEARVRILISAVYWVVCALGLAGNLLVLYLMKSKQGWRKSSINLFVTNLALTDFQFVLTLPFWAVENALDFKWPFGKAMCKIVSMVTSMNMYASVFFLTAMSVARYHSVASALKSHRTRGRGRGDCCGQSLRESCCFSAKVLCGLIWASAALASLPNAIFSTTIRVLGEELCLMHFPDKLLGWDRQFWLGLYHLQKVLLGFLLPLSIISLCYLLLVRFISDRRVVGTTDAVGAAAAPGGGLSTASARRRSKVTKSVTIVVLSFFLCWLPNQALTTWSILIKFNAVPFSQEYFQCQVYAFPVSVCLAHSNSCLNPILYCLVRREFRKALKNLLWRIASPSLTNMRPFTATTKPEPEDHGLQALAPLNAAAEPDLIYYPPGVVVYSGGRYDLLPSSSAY

[4] = molecular target: T1, rat GPCR135 long form (rat); experiment: radio-ligand binding assay on recombinantly expressed receptor
[5] = molecular target: T2, rat GPCR135 short form (rat); experiment: as above
[6] = molecular target: T1, rat GPCR135 long form (rat); experiment: radioligand binding on transfected COS7 cells, with or without 1 uM unlabeled human relaxin3
[7] = molecular target: T2, rat GPCR135 short form (rat); experiment: as above
mouse GPCR135 (mouse) [8] = molecular target: T3, mouse GPCR135 (mouse); experiment: as above

Measured: binding

B1: 125I-labeled human relaxin3 (ligand)
chain 1: RAAPYGVRLCGREFIRAVIFTCGGSRW
chain 2: DVLAGLSSSCCKWGCSKSEISSLC
modifications: 125I label; labelled chain and residue not stated
binds: all assays above

Reference: patent US20060188956A1, “Relaxin3-gpcr135 complexes and their production and use” (priority 2003, published 2006)
